Test system: H1975 cells
Assay: MTT cytotoxicity, H1975
Format: cell-based
Details: Homo sapiens, NCI-H1975, read-out: H1975 IC50

Question: Which IC50 does the source give for `CN[C@@H]1C[C@H]2O[C@@](C)([C@@H]1OC)n1c3ccccc3c3c4c(c5c6ccccc6n2c5c31)C(=O)NC4` [Staurosporine, reference compound] here?
Answer: 4.42 µM
